# The other results are listed elsewhere or left out.
# B1: EULS2 M1 (Oryza sativa) (protein)
# chain: MVYCRANPNYAMTARNGAVVLAPANPKDEYQHWIKDMRWSTSIKDEEGYPAFALVNKATGQAIKHSLGQSHPVRLVPYNPEVMDESVLWTESRDVGNGFRCIRMVNNIYLNFDAFHGDKYHGGVRDGTDIVLWKLCEGDNQRWKIQPYYILEQKLISEEDLNSAVDHHHHHH
# Key:
# Assay in all cases: glycan array binding signal (z-score within array); higher = stronger binding
# Conditions in all cases: glycan notation: IUPAC condensed, linker removed
# [1] = target: Gal(b1-4)Glc
# Method in brief: (§1)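 Glycan array data came from 3228 arrays in the Consortium for Functional Glycomics database, and only arrays with an available protein sequence were kept. Glycan names were put into IUPAC-condensed notation, and columns mapping to the same glycan were averaged. The binding signal is a within-array Z-score, averaged across arrays of one protein sequence run at different concentrations or buffers and across linkers. A negative Z-score can be read as non-binding.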
# [2] = target: Gal(b1-4)Glc6S
# Method in brief: as §1
# [3] = target: Gal(b1-4)GlcNAc
# Method in brief: as §1
# [4] = target: Gal(b1-4)GlcNAc(a1-6)Gal(b1-4)GlcNAc
# Method in brief: as §1
# [5] = target: Gal(b1-4)GlcNAc(b1-2)Man
# Method in brief: as §1
# [6] = target: Gal(b1-4)GlcNAc(b1-2)Man(a1-3)Man(b1-4)GlcNAc(b1-4)GlcNAc
# Method in brief: as §1
# [7] = target: Gal(b1-4)GlcNAc(b1-2)Man(a1-3)[Gal(b1-4)GlcNAc(b1-2)Man(a1-6)]Man(b1-4)GlcNAc(b1-4)GlcNAc
# Method in brief: as §1
# [8] = target: Gal(b1-4)GlcNAc(b1-2)Man(a1-3)[Gal(b1-4)GlcNAc(b1-2)Man(a1-6)]Man(b1-4)GlcNAc(b1-4)[Fuc(a1-6)]GlcNAc
# Method in brief: as §1
# [9] = target: Gal(b1-4)GlcNAc(b1-2)Man(a1-3)[Gal(b1-4)GlcNAc(b1-2)Man(a1-6)][Gal(b1-4)GlcNAc(b1-4)]Man(b1-4)GlcNAc(b1-4)[Fuc(a1-6)]GlcNAc
# Method in brief: as §1
# [10] = target: Gal(b1-4)GlcNAc(b1-2)Man(a1-3)[Gal(b1-4)GlcNAc(b1-2)Man(a1-6)][GlcNAc(b1-4)]Man(b1-4)GlcNAc(b1-4)[Fuc(a1-6)]GlcNAc
# Method in brief: as §1
# [11] = target: Gal(b1-4)GlcNAc(b1-2)Man(a1-3)[GlcNAc(b1-2)Man(a1-6)]Man(b1-4)GlcNAc(b1-4)GlcNAc
# Method in brief: as §1
# [12] = target: Gal(b1-4)GlcNAc(b1-2)Man(a1-3)[GlcNAc(b1-4)][Gal(b1-4)GlcNAc(b1-2)Man(a1-6)]Man(b1-4)GlcNAc(b1-4)GlcNAc
# Method in brief: as §1
# [13] = target: Gal(b1-4)GlcNAc(b1-2)Man(a1-3)[Man(a1-6)]Man(b1-4)GlcNAc(b1-4)GlcNAc
# Method in brief: as §1
# [14] = target: Gal(b1-4)GlcNAc(b1-2)Man(a1-6)Man(b1-4)GlcNAc(b1-4)GlcNAc
# Method in brief: as §1
# [15] = target: Gal(b1-4)GlcNAc(b1-2)Man(a1-6)[GlcNAc(b1-2)Man(a1-3)]Man(b1-4)GlcNAc(b1-4)GlcNAc
# Method in brief: as §1
# [16] = target: Gal(b1-4)GlcNAc(b1-2)Man(a1-6)[Man(a1-3)]Man(b1-4)GlcNAc(b1-4)GlcNAc
# Method in brief: as §1
# [17] = target: Gal(b1-4)GlcNAc(b1-2)[Gal(b1-4)GlcNAc(b1-4)]Man(a1-3)[Gal(b1-4)GlcNAc(b1-2)Man(a1-6)]Man(b1-4)GlcNAc(b1-4)GlcNAc
# Method in brief: as §1
# [18] = target: Gal(b1-4)GlcNAc(b1-2)[Gal(b1-4)GlcNAc(b1-4)]Man(a1-3)[Gal(b1-4)GlcNAc(b1-2)[Gal(b1-4)GlcNAc(b1-6)]Man(a1-6)]Man(b1-4)GlcNAc(b1-4)GlcNAc
# Method in brief: as §1
# [19] = target: Gal(b1-4)GlcNAc(b1-2)[Gal(b1-4)GlcNAc(b1-4)]Man(a1-3)[GlcNAc(b1-4)][Gal(b1-4)GlcNAc(b1-2)Man(a1-6)]Man(b1-4)GlcNAc(b1-4)GlcNAc
# Method in brief: as §1
# [20] = target: Gal(b1-4)GlcNAc(b1-2)[Gal(b1-4)GlcNAc(b1-4)]Man(a1-3)[GlcNAc(b1-4)][Gal(b1-4)GlcNAc(b1-2)[Gal(b1-4)GlcNAc(b1-6)]Man(a1-6)]Man(b1-4)GlcNAc(b1-4)GlcNAc
# Method in brief: as §1
# [21] = target: Gal(b1-4)GlcNAc(b1-2)[Gal(b1-4)GlcNAc(b1-6)]Man(a1-6)[Gal(b1-4)GlcNAc(b1-2)Man(a1-3)]Man(b1-4)GlcNAc(b1-4)GlcNAc
# Method in brief: as §1
# [22] = target: Gal(b1-4)GlcNAc(b1-2)[Gal(b1-4)GlcNAc(b1-6)]Man(a1-6)[Gal(b1-4)GlcNAc(b1-2)Man(a1-3)]Man(b1-4)GlcNAc(b1-4)[Fuc(a1-6)]GlcNAc
# Method in brief: as §1
binder,measurement,setting,value
B1,glycan array binding signal (z-score),[1],-0.471
same,glycan array binding signal (z-score),[2],-1.02
same,glycan array binding signal (z-score),[3],-0.618
same,glycan array binding signal (z-score),[4],-0.065
same,glycan array binding signal (z-score),[5],-0.009
same,glycan array binding signal (z-score),[6],-0.001
same,glycan array binding signal (z-score),[7],-0.312
same,glycan array binding signal (z-score),[8],-0.201
same,glycan array binding signal (z-score),[9],0.067
same,glycan array binding signal (z-score),[10],-0.719
same,glycan array binding signal (z-score),[11],0.521
same,glycan array binding signal (z-score),[12],1.31
same,glycan array binding signal (z-score),[13],0
same,glycan array binding signal (z-score),[14],-0.416
same,glycan array binding signal (z-score),[15],0.158
same,glycan array binding signal (z-score),[16],-0.073
same,glycan array binding signal (z-score),[17],-0.757
same,glycan array binding signal (z-score),[18],-0.584
same,glycan array binding signal (z-score),[19],0.188
same,glycan array binding signal (z-score),[20],-0.076
same,glycan array binding signal (z-score),[21],-0.141
same,glycan array binding signal (z-score),[22],-0.029

# Random excerpt: two entries already listed
binder,measurement,setting,value
B1,glycan array binding signal (z-score),[17],-0.757
same,glycan array binding signal (z-score),[21],-0.141
